This is one part of the list. Shown are side measurements of this screen, not its main read-out; they come without a call. Compounds called inactive in the main read-out are mostly missing here. Words in brackets tell the shape of the fitted curve; partial curves, single points and poor fits give uncertain potencies.
Assay: IkB Signaling
Conditions: ABC-DLBCL IkBa-CBG/CBR dual luciferase ratio (green luciferase fused to IkBa over red control in OCI-Ly3 lymphoma cells), 4 h
Method in brief: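 Curves were fitted separately to fusion (green), unfused (red) and ratio luminescence, then classed by r2, magnitude and activity. Cells: OCI-Ly3, 4 h compound plus doxycycline at 37C; 10 uM MG-132 defined full response.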

[1] = measured here: control luc red channel unless noted
[2] = measured here: IkB-luc green channel
[3] = measured here: control luc red channel

N#Cc1c(Nc2cccc(F)c2)sc(C(=O)c2ccc(Cl)cc2)c1N
AC50 [1]: 10 µM [falling, partial curve]

COc1ccc(-c2nc3sc(CCNS(=O)(=O)c4ccc(F)c(C)c4)c(C)n3n2)cc1
AC50 [1]: 20 µM [falling, partial curve]

COc1ccccc1CNC(=O)CN1C(=O)CCn2nc(-c3ccccc3)cc21
AC50 [1]: 6.31 µM [falling, partial curve, poor fit]

COc1ccc(OCCSc2nc3ccccc3n2CC(=O)N2CCOCC2)cc1
AC50 [1]: 15.8 µM [falling, single point]

CCOc1ccc(CNC(=O)C2CCN(C(=O)c3sccc3-n3cccc3)CC2)cc1
AC50 [1]: 39.8 µM [falling, single point]

Cc1ccc(S(=O)(=O)N2CCOCC2)cc1C(=O)Nc1ccc(-c2cn3ccsc3n2)cc1
AC50 [1]: 10 µM [falling, partial curve]

O=c1c2ccccc2nnn1CSc1ccc2c(c1)OCCO2
AC50 [1]: 20 µM [falling, partial curve]

CCOC(=O)c1c(C)[nH]c(C)c1S(=O)(=O)NCC(=O)N1CCN(c2cc(Cl)ccc2C)CC1
AC50 [1]: 20 µM [falling, single point]

COCc1cc(C)nc2sc3c(c12)NC(c1ccccc1C(=O)O)N(c1ccc(OC)cc1)C3=O (configuration not stated)
AC50 [1]: 39.8 µM [falling, single point]

Cc1ccc(C)c(NC(=O)c2nnn(CC(=O)Nc3cccc(C)c3C)c2N)c1
AC50 [1]: 15.8 µM [falling, partial curve, poor fit]

Cc1ccc(S(=O)(=O)N2CCOCC2)cc1C(=O)OCC(=O)N1CCc2ccccc2C1
AC50 [1]: 25.1 µM [falling, single point]

O=c1cc(CN2CCN(S(=O)(=O)c3ccccc3)CC2)nc2sc(-c3ccccc3Cl)nn12
AC50 [1]: 15.8 µM [falling, partial curve]

O=C(CS(=O)(=O)c1nc(-c2ccc(Cl)cc2)cn1-c1ccccc1)Nc1ccc(F)cc1F
AC50 [1]: 5.01 µM [falling, partial curve]

CC(C)(C)OC(=O)N1CC=C2C(C#N)=C(N)C(C#N)(C#N)C(c3cccs3)C2C1 (configuration not stated)
AC50 [1]: 25.1 µM [falling, partial curve]

Cn1c(=O)n(CCc2ccccc2)c(=O)c2c1nc1n2CCCN1CCc1ccccc1
AC50 [1]: 6.31 µM [falling, partial curve]

Cc1ccc2c(c1)CC(C)N2S(=O)(=O)c1nnc(NC(=O)C(C)C)s1 (configuration not stated)
AC50 [1]: 0.1 µM [rising, full curve]

COc1ccc(-c2cc(C(F)(F)F)nc(SCCC(=O)Nc3cccc(O)c3)n2)cc1
AC50 [2]: 39.8 µM [rising, single point]
AC50 [3]: 31.6 µM [rising, single point]

CCOc1ccc(CCNC(=O)c2sc3ncccc3c2-n2c(C)ccc2C)cc1
AC50 [1]: 25.1 µM [falling, partial curve]

COC(=O)c1c(NC(=O)c2cc3nc(-c4ccc(Br)cc4)cc(C(F)(F)F)n3n2)sc2c1CCCC2
AC50 [1]: 12.6 µM [rising, partial curve]

COc1ccc(NC(=O)Cn2cc(C(=O)C3CCCCC3)c3ccccc32)cc1
AC50 [1]: 0.00794 µM [falling, full curve, poor fit]

CC(C)Oc1ccc(C(=O)N2CC(=O)Nc3ccc(F)cc3C2c2ccc(F)cc2)cc1 (configuration not stated)
AC50 [1]: 10 µM [falling, partial curve]

CCOc1ccc(CNC(=O)CN2C(=O)C3CCCCN3c3ccc(C(=O)N4CCCC4)cc32)cc1 (configuration not stated)
AC50 [1]: 10 µM [rising, partial curve]

COc1ccc(Cn2ccc3nc(C)c(C(=O)N4CCN(c5cc(C)ccc5C)CC4)cc3c2=O)cc1
AC50 [1]: 31.6 µM [falling, partial curve, poor fit]

CCc1cccc(C)c1NC(=O)C(CC)n1ncn2c(cc3cc(C)ccc32)c1=O (configuration not stated)
AC50 [1]: 15.8 µM [falling, partial curve]

COc1ccccc1N1CC(O)=C(c2nc3ccccc3c(=O)[nH]2)C1=N
AC50 [1]: 5.01 µM [falling, partial curve]

Cc1ccc(S(=O)(=O)c2nc(S(=O)(=O)c3ccc(C)cc3)c(NC(C)C)s2)cc1
AC50 [1]: 0.501 µM [falling, single point]

CCOc1ccc(CNC(=O)c2cnc3sc(N4CCCCCC4)nn3c2=O)cc1OC
AC50 [1]: 0.631 µM [rising, partial curve, poor fit]

Cc1cc2n(n1)CCC(=O)N2Cc1ccc(C(=O)Nc2ccc(Br)c(C)c2)cc1
AC50 [1]: 39.8 µM [falling, single point]

COc1ccccc1-n1c(CNc2c(C)cccc2C)nnc1SCC(=O)N1CCOCC1
AC50 [1]: 3.98 µM [falling, partial curve]

COC(=O)c1c(NC(=O)COc2c(C)ccc(C)c2C)sc2c1CCC(C)C2 (configuration not stated)
AC50 [1]: 25.1 µM [falling, single point]

CC1=C(C(=O)Nc2cccnc2)C(c2ccc(Cl)cc2)n2nc(SCc3ccccc3)nc2N1 (configuration not stated)
AC50 [1]: 0.794 µM [falling, full curve, poor fit]

O=C(CC1N=C2c3ccccc3N=C(SCc3ccccc3Cl)N2C1=O)NCc1cccs1 (configuration not stated)
AC50 [1]: 31.6 µM [falling, partial curve]

O=C(c1nc(-c2ccccc2)n(-c2ccccc2)n1)N1CCN(S(=O)(=O)c2ccccc2)CC1
AC50 [1]: 25.1 µM [falling, single point]

COc1ccc(C(=O)NNc2ncnc3c2cnn3-c2ccccc2)cc1
AC50 [1]: 10 µM [falling, partial curve]

CCOc1ccc(NC(=O)Cc2ccc(-n3c(C)nc4cccnc43)cc2)cc1
AC50 [1]: 6.31 µM [falling, single point]

CCOC(=O)C1CCCN(Cc2cn3c(-c4ccc(Br)cc4)nnc3s2)C1 (configuration not stated)
AC50 [1]: 39.8 µM [rising, single point]

CCc1nc(Nc2ccc(N3CCN(C(C)=O)CC3)cc2)c2oc3ccccc3c2n1
AC50 [1]: 7.94 µM [falling, full curve]

O=C(c1ccco1)N1CCC(c2ccccc2)C1 (configuration not stated)
AC50 [1]: 7.94 µM [falling, partial curve]

CCN(CC)CCNC(=O)c1[nH]c2ccccc2c1Sc1ccc(Cl)cc1
AC50 [1]: 15.8 µM [falling, single point]

O=C(Nc1cc(Cl)ccc1Cl)c1cc(S(=O)(=O)N2CCCc3ccccc32)ccc1F
AC50 [1]: 7.94 µM [falling, partial curve]

CN(C(=O)c1ccc2c(c1)N(Cc1ccccc1F)C(=O)c1ccccc1S2(=O)=O)C1CCCCC1
AC50 [1]: 20 µM [falling, single point]

Cc1cc(C)c(/C=C/c2onc(C)c2S(=O)(=O)N2CCC(C(=O)Nc3ccc(Cl)cc3C)CC2)c(C)c1
AC50 [1]: 20 µM [falling, partial curve]

Cc1ccccc1NC(=O)c1c(NC(=O)C(F)(F)F)sc2c1CCCCC2
AC50 [1]: 0.631 µM [falling, full curve]

N=c1n(CCO)c2ccccc2n1CCOc1ccc(Cl)cc1Cl
AC50 [2]: 15.8 µM [falling, partial curve]
AC50 [3]: 10 µM [falling, partial curve]

COc1ccc(-c2nnc(Nc3nc4c(OC)cccc4s3)o2)cc1
AC50 [1]: 6.31 µM [falling, partial curve]

CCOC(=O)c1c(C)c(C(=O)NCc2ccc(Cl)cc2)c(C)n1CC
AC50 [1]: 0.0398 µM [falling, full curve, poor fit]

CC(C)c1ccccc1Oc1c(C(F)(F)F)oc2c(CN3CCN(C)CC3)c(O)ccc2c1=O
AC50 [1]: 31.6 µM [falling, single point]

Cn1c(-c2ccc(S(=O)(=O)N3CCCC3)cc2)csc1=Nc1ccc(Cl)c(Cl)c1
AC50 [1]: 5.01 µM [falling, partial curve]

CCOc1ccccc1Nc1sc(C(=O)c2ccc(Cl)cc2)c(N)c1C(=O)NCCc1ccccc1
AC50 [1]: 0.2 µM [falling, full curve, poor fit]

Fc1ccc(N2CCN(C(c3cccs3)c3nnnn3CCc3ccccc3)CC2)cc1 (configuration not stated)
AC50 [1]: 12.6 µM [falling, partial curve]

COc1ccc(NCc2cc3ccc(OC)cc3n(CC(=O)Nc3cccc(OC)c3)c2=O)cc1
AC50 [1]: 39.8 µM [falling, single point]

OC(COc1ccc2ccccc2c1)CN1CCCC1 (configuration not stated)
AC50 [1]: 2 µM [falling, full curve]

CCc1cccc(NC(=O)Cn2c(=O)n(CCC(=O)NCC3CCCO3)c(=O)c3cc(OC)c(OC)cc32)c1 (configuration not stated)
AC50 [1]: 12.6 µM [falling, partial curve]

Cn1c(/N=C/c2cc(Cl)ccc2O)nc2ccccc21
AC50 [1]: 5.01 µM [falling, partial curve]

Cc1ccc(-c2nc3ncccc3o2)cc1NC(=O)c1ccccc1Br
AC50 [1]: 3.98 µM [rising, partial curve]

Cc1c(C(=O)Nc2ccc(F)cc2)oc2ccc(S(=O)(=O)N3CCC4(CC3)OCCO4)cc12
AC50 [1]: 3.98 µM [falling, full curve]

CCCCN(CCCNC(=O)CN1C(=O)COc2ccccc21)c1ccccc1
AC50 [1]: 15.8 µM [falling, partial curve]

Cc1ccc(CSC2=Nc3ccccc3C3=NC(CC(=O)NCc4cccs4)C(=O)N23)cc1 (configuration not stated)
AC50 [1]: 12.6 µM [falling, partial curve]

CC1CC(=O)N(CC(=O)Nc2ccc(F)cc2F)c2ccccc2S1 (configuration not stated)
AC50 [1]: 25.1 µM [falling, single point]

O=C(CCCn1ccc2cc(S(=O)(=O)N3CCCC3)ccc21)NCc1ccc(Cl)cc1
AC50 [1]: 15.8 µM [falling, partial curve]

Source: PubChem BioAssay AID445 (National Center for Advancing Translational Sciences (NCATS), 2006)
